Source: article PMC13337110, “Pericentrosomal Redistribution of the Endoplasmic Reticulum Ensures Organelle Symmetric Inheritance and Mitotic Progression” (Advanced Science, 2026)
Results are given in words; binding and its absence hold for the method and conditions named. In cells and extracts the contact can be indirect. Some binding calls cover weakened binding; strength is not graded here.

Amino acid sequences for entries named in this document (tags omitted). A change or cut given only in a name is not applied to a line headed by its entry. Chains listed by the source or under a name are the forms on record and can include a tag or linker.
2×Strep-HA-RTN4B 6D (Q9NQC3-2, form named): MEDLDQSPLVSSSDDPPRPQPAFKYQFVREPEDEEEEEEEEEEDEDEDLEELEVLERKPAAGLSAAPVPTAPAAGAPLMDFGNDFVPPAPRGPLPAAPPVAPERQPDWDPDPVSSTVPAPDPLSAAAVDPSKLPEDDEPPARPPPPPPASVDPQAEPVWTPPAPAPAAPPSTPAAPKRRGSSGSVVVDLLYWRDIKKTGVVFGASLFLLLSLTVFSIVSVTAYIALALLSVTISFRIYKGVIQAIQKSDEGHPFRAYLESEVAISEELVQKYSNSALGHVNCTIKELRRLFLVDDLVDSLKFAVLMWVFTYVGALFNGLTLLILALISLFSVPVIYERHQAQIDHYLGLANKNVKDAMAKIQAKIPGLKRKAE
RTN4 (construct not stated; Figures S4H, S5B, S5D, S5E, S5F) (Q9NQC3-2, form named): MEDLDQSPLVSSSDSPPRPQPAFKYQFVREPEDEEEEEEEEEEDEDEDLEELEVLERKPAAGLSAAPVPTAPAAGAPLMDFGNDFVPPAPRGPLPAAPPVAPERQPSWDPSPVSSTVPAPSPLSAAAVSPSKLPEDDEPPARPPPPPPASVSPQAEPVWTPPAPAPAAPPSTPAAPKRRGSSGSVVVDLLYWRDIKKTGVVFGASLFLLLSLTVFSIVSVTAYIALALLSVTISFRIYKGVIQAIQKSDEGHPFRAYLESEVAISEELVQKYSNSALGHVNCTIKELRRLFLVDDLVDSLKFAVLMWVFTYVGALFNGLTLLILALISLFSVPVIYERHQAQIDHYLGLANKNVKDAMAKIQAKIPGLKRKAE

Assays:
[1] = biological target: mEmerald-Rab11A (HeLa, stable) (human) (UniProt P62491); assay: co-IP; lysates of HeLa cells stably expressing mEmerald-Rab11A (asynchronous or STLC-arrested mitotic; or co-expressing 2×Strep-HA-RTN4B variants); anti-GFP nanobody agarose beads, 2 h at 4°C; 50 mM Tris-HCl, 150 mM NaCl, 1% Triton X-100, 1 mM EDTA, pH 7.4; Western blot
[2] = biological target: mEmerald-Rab11A (HEK293T, overexpressed) (human) (UniProt P62491); assay: co-IP; lysates of HEK293T cells overexpressing mEmerald-Rab11A and 3×Flag-RTN4B constructs; anti-GFP nanobody agarose beads, 2 h at 4°C; Western blot
[3] = biological target: T1, Rab11B (human) (UniProt Q15907); assay: co-IP; co-immunoprecipitation; baits, tags and cells only in Figures S5B and S5E
T1 sequence: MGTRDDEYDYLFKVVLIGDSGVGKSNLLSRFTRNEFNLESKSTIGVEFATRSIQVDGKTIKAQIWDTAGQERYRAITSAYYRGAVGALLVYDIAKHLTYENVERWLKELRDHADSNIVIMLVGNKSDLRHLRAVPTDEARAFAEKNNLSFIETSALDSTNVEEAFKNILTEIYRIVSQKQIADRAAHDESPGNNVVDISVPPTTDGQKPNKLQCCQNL

[4] = biological target: T2, FIP3 (human) (UniProt O75154); assay: as above
T2 sequence: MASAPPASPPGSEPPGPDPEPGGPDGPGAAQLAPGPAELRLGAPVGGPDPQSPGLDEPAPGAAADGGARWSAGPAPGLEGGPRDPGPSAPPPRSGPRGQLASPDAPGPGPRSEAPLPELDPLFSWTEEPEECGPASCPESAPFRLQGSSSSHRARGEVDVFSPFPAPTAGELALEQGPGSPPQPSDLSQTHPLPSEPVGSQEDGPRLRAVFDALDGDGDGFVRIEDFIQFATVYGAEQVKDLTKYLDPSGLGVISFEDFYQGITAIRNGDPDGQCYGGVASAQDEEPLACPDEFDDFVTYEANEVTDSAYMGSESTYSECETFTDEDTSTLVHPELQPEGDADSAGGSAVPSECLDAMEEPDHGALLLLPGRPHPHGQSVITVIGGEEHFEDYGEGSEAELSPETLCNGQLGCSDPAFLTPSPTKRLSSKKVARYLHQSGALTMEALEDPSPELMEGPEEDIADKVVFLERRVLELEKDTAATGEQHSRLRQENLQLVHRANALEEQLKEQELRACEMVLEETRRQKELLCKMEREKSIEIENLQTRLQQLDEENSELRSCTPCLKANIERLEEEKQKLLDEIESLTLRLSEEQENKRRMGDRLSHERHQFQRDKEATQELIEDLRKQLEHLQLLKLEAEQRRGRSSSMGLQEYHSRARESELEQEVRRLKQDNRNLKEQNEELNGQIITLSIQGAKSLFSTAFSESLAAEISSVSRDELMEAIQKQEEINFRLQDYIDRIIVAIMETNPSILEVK

[5] = biological target: Rab11A (construct not stated; Figures S5B, S5D) (human) (UniProt P62491); assay: as above

2×Strep-HA-RTN4B 6D (from UniProt Q9NQC3-2 1-373)
binding [1]: binds

3×Flag-RTN4B full-length (FL) (from UniProt Q9NQC3-2 1-373)
binding [2]: binds

RTN4 (construct not stated; Figures S4H, S5B, S5D, S5E, S5F) (from UniProt Q9NQC3-2 1-373)
binding [3]: binds | binding [4]: binds | binding [5]: binds
